Measured values: paper PMC11662004 (Communications Chemistry, 2024)
Some peptides are written in HELM: one residue between dots, names in brackets for other building blocks, links after the first $.

Experiment: general procedure: Fmoc solid-phase peptide synthesis; Rink amide MBHA
Settings: whole synthesis, 220 nm, scale 100 μmole

Substance: PEPTIDE1{[CH2CO].[dY].L.I.Y.A.Y.Y.T.W.W.E.H.S.C.[am]}$PEPTIDE1,PEPTIDE1,1:R3-15:R3$$$V2.0
- final HPLC purity: >99.0%
